Assay results from paper PMC13245411.
Results are given in words; binding and its absence hold for the method and conditions named. In cells and extracts the contact can be indirect. Some binding calls cover weakened binding; strength is not graded here. Where a sequence is shown, tags or fusion partners need not be part of it.

Assays:
Test in all cases: co-IP; tagged proteins co-expressed in pairs in HEK293T; immunoprecipitated from cell lysates by tag-specific antibodies, Western blot; IP lysis buffer 20 mM HEPES, 150 mM NaCl, 0.5% NP-40, 1 mM DTT, pH 7.3; 4°C (Fig. 1A, B; Supplementary Fig. S2C, D)
[1] = biological target: mouse SHOC1 ΔF2 (aa313-625del) (mouse) (UniProt A2ALV5)
[2] = biological target: mouse SHOC1 ΔF3 (aa626-1154del) (mouse) (UniProt A2ALV5)
[3] = biological target: mouse SHOC1 ΔF4 (aa1155-1482del) (mouse) (UniProt A2ALV5)

| binding [1] | binding [2] | binding [3] | Binder |
| --- | --- | --- | --- |
| binds | binds | binds | mouse HA-tagged REDIC1 (protein, UniProt A0A087WRU1 1-652) MNWVGGSRSRVLIKQERRKQKEYFERNKLKSKLKLLGVVSPVKKPSVSLDLLNLYVVNQISSMKENSETMKRPTHVNMTRDLKVPLRKHDLELPMSPHCVPSKLCIDDMEDSVPYQRIYSKEETGPVQSSQDMKSYRMFNETGNCSYIPPSFPEELRSNRHIRSQHSTPRIGPSPQQFVYENPHSGQFSNGKFPESLFSKLNKHQHVFSSSQTTAEFEAPYKRTNSSETGDFLTKRSMIMGEDCRSLYERRQPDFAMEKPLVQQIYANNGEEFSNFLEDVIHPTQRHLPDNHNSFVSHSMIDLLSKDQPGRRATFTKCGYDSLSDTHVVSSDESHSSSGLINGEFTVPQATSPNFPFNTSYTETCQPNRPCQEYNSNEINEFRRSFEKDCYSIGCGRKGKIESDKQLKELQRNARKHPVYTMADIPLEELHCKQSCDFDQNEIPMERRGMCPLKGQPMSTEKIYLESSQSSQSASYSPRPTESTFSSSTDLISEDEDQIQQQTEDSNKKATETTGNCCLEKMENHFDDITVKDDATAHKQNHKCLQSSEKNNADAFPESQCNSEHTVQNKSTDNCVLQAGRCDVGVQTEEAPLVGNTADVAVQCTIITRCSCMSSPVLIREKESSHPEAGSCTEDRTADTTGGQETPTSNSL |
| binds | binds | binds | mouse HA-tagged M1AP (protein, UniProt Q9Z0E1 1-529) MNRRKTTSRGTSAAMKISHQPPRLLIVNIAVPSWVDICPNLCEALQNFFSIACSLMGPSRMSLFSLYTVQNQHECVLPFVQVRGNFIRLQACISELRMLQVEGCHRPPHALLPLAIEDGLQQFKQYSSHMASSAAQPWTSLEITVLTSRPGKEVVKELEEGLKDINLLSVRRLQVAEVTKGIQERSDSPSPTEEPSNDESSILEADIVLETLDNDVVSMEVFFKAWLHNSETDQENIHLLLTPQSLPPPSRAKDHPICLKCDLQERFLSPSLLPGTADGVSRIDDPKGDISTLYQMASLASASPYKLQVVKALKSSGICESLTYGLPFILRPTSCWQLDWDELETNQQHFHALCHCLLKRDWLLLARGEPLIHKHNQSLPACSFYVITPSHSLTLLVKLVATRELMLPGFFPLLSEDPPEDSLKIIESTLDSLDLGLTYNPLHVGSHLYSHLSSAHAKPQGRLYTSCASRGLRKGGQLQTNRVRAAVVPLPVAPAPRRALKMTAASKASSAAFLPSDSEEGEEERPSHT |
